Where a name gives a salt, the structure may show the parent alone. The list shows a part of the results. This is a noisy data set.
What follows are compounds tested on Peyronie's disease tunica albuginea primary fibroblasts (assay: inhibition of TGF-beta1-induced alpha-SMA expression (myofibroblast transformation), relative to TGF-beta1-only and untreated controls; higher = stronger inhibition of myofibroblast transformation). Conditions: 10 µM; TGF-beta1 10 ng/mL; 72 h.
O=S(=O)(O)CCCS(=O)(=O)O [Eprodisate disodium] was tested, and the “inhibition of TGF-beta1-induced alpha-SMA expression” value (“inhibition” for short) was 7.9%. For CCOC(=O)[C@H](CCc1ccccc1)N[C@@H](C)C(=O)N1CCC[C@H]1C(=O)O [Enalapril Maleate], the “inhibition” value was 7.21%. For CNC(=O)[C@H](Cc1ccccc1)NC(=O)[C@H](CC(C)C)[C@H](CSc1cccs1)C(=O)NO [Batimastat (BB-94)], the “inhibition” value was 26.3%. In the case of Cn1nnnc1SCC1=C(C(=O)O)N2C(=O)[C@@H](NC(=O)[C@H](OC=O)c3ccccc3)[C@H]2SC1 [Cefamandole nafate], the “inhibition” value was 14.3%. In the case of C[C@H](NC(=O)[C@@H](Cc1ccc2ccccc2c1)NC(=O)[C@@H](C)N)C(=O)N[C@@H](Cc1c[nH]c2ccccc12)C(=O)N[C@H](Cc1ccccc1)C(=O)N[C@@H](CCCCN)C(N)=O, the “inhibition” value was 8.35%. C=CC(=O)N1CCC[C@@H](n2nc(-c3ccc(Oc4ccccc4)cc3)c3c(N)ncnc32)C1 was tested, and the “inhibition” value was -34.2%. For COc1cc2c(cc1OC)[C@H]1C[C@@H](OC(=O)[C@@H](N)C(C)C)[C@H](CC(C)C)CN1CC2 [Valbenazine tosylate], the “inhibition” value was 25%. With CC1=C(CC(=O)O)c2cc(F)ccc2/C1=C\c1ccc([S+](C)[O-])cc1 (stereo not drawn) [Sulindac] the “inhibition” value was 14.3%. For C[C@]12CC[C@@H]3c4ccc(O)cc4CC[C@H]3[C@@H]1C[C@@H](O)[C@@H]2O [Estriol], the “inhibition” value was 22.3%. In the case of Cc1noc(NS(=O)(=O)c2ccc(N)cc2)c1C [Sulfisoxazole], the “inhibition” value was 19.1%. In the case of CCc1cccc2c3c([nH]c12)C(CC)(CC(=O)O)OCC3 (stereo not drawn) [Etodolac], the “inhibition” value was 1.72%. CCC[C@H](NC(=O)[C@@H]1[C@H]2CCC[C@H]2CN1C(=O)[C@@H](NC(=O)[C@@H](NC(=O)c1cnccn1)C1CCCCC1)C(C)(C)C)C(=O)C(=O)NC1CC1 [Telaprevir (VX-950)] was tested, and the “inhibition” value was 7.98%. COc1ccc(-c2cc(=O)c3c(O)cc(O[C@@H]4O[C@H](CO[C@@H]5O[C@@H](C)[C@H](O)[C@@H](O)[C@H]5O)[C@@H](O)[C@H](O)[C@H]4O)cc3o2)cc1O [Diosmin] was tested, and the “inhibition” value was 10.3%. COc1cc(Nc2ncc(F)c(Nc3ccc4c(n3)N(COP(=O)(O)O)C(=O)C(C)(C)O4)n2)cc(OC)c1OC [R788 (Fostamatinib) Disodium] was tested, and the “inhibition” value was over 100%. For COc1cc(Nc2ncc(F)c(Nc3ccc4c(n3)N(COP(=O)(O)O)C(=O)C(C)(C)O4)n2)cc(OC)c1OC [Fostamatinib (R788)], the “inhibition” value was over 100%. For CC1(C)S[C@@H]2[C@H](NC(=O)[C@H](NC(=O)N3CCN(S(C)(=O)=O)C3=O)c3ccccc3)C(=O)N2[C@H]1C(=O)O [Mezlocillin Sodium], the “inhibition” value was -40%. Cn1c(=O)cc(N2CCC[C@@H](N)C2)n(Cc2ccccc2C#N)c1=O [Alogliptin] was tested, and the “inhibition” value was 14.2%. Cc1nnc(C(C)C)n1C1C[C@H]2CC[C@@H](C1)N2CC[C@H](NC(=O)C1CCC(F)(F)CC1)c1ccccc1 (stereo in doubt) [Maraviroc] was tested, and the “inhibition” value was 66.8%. With CCCCCCCN(CC)CCCC(O)c1ccc(NS(C)(=O)=O)cc1 (stereo not drawn) [Ibutilide Fumarate] the “inhibition” value was 26.3%. With OC[C@@H](O)[C@@H](O[C@@H]1O[C@H](CO)[C@H](O)[C@H](O)[C@H]1O)[C@H](O)[C@@H](O)CO [Lactitol monohydrate] the “inhibition” value was 27.8%. With OC[C@@H](O)[C@@H](O[C@@H]1O[C@H](CO)[C@H](O)[C@H](O)[C@H]1O)[C@H](O)[C@@H](O)CO [Lactitol] the “inhibition” value was -19.4%. For c1ccc2[nH]c(-c3cscn3)nc2c1 [Thiabendazole], the “inhibition” value was 8.73%. For CC(C)(C)NC(=O)N[C@H](C(=O)N1C[C@H]2[C@@H]([C@H]1C(=O)NC(CC1CCC1)C(=O)C(N)=O)C2(C)C)C(C)(C)C (stereo partly drawn) [Boceprevir], the “inhibition” value was 7.52%. CN1CC2c3ccccc3Oc3ccc(Cl)cc3C2C1 (stereo not drawn) [Asenapine maleate] was tested, and the “inhibition” value was over 100%. In the case of COc1cc(C(=O)NC2CCCNC2)cc(OC)c1OC (stereo not drawn) [Troxipide], the “inhibition” value was -6.45%. In the case of C[C@]12CC[C@@H]3c4ccc(O)cc4CC[C@H]3[C@@H]1CCC2=O [Estrone], the “inhibition” value was 13.8%. CCCCCCCCc1ccc(CCC(N)(CO)CO)cc1 [Fingolimod (FTY720) HCl] was tested, and the “inhibition” value was over 100%. O=C1OC2(c3ccc(O)cc3Oc3cc(O)ccc32)c2ccccc21 [Fluorescein] was tested, and the “inhibition” value was 17.3%. With CN(C)[C@@H]1C(O)=C(C(N)=O)C(=O)[C@@]2(O)C(O)=C3C(=O)c4c(O)ccc(Cl)c4[C@@](C)(O)[C@H]3C[C@@H]12 [Chlortetracycline HCl] the “inhibition” value was 29.4%. For CC(=O)OCC1=C(C(=O)O)N2C(=O)[C@@H](NC(=O)CSc3ccncc3)[C@H]2SC1 [Cephapirin Sodium], the “inhibition” value was 58.5%. With O=C(O)CCC(=O)Nc1ccc(S(=O)(=O)Nc2nccs2)cc1 [Succinylsulfathiazole] the “inhibition” value was -24.6%. COc1cnc(NS(=O)(=O)c2ccc(N)cc2)nc1 [Sulfameter] was tested, and the “inhibition” value was -4.25%. With O=C(O)CCn1c2c(c3ccccc31)C[C@H](NS(=O)(=O)c1ccc(F)cc1)CC2 [Ramatroban] the “inhibition” value was 16.3%. With Cc1cccc(CN2CCN(C(c3ccccc3)c3ccc(Cl)cc3)CC2)c1 (stereo not drawn) [Meclizine 2HCl] the “inhibition” value was 6.51%. With CCCCC(C)(O)C/C=C/[C@H]1[C@H](O)CC(=O)[C@@H]1CCCCCCC(=O)OC (mixture of isomers) [Misoprostol] the “inhibition” value was 38.4%. For COc1ccccc1O [Guaiacol], the “inhibition” value was 20.1%. In the case of O=NN(CCCl)C(=O)NC1CCCCC1 [Lomustine], the “inhibition” value was 11%. For CCOC(=O)C1=C[C@]2(CC)CCCN3CCc4c(n1c1ccccc41)[C@@H]32 [Vinpocetine], the “inhibition” value was 6.67%. With CN1CCC(COc2cnc(-c3cccc(Cn4nc(-c5cccc(C#N)c5)ccc4=O)c3)nc2)CC1 the “inhibition” value was -23.3%. CC(C)c1cc(C(=O)N2Cc3ccc(CN4CCN(C)CC4)cc3C2)c(O)cc1O was tested, and the “inhibition” value was over 100%. With CC(C)NCC(O)COc1cccc2ccccc12 (stereo not drawn) [Propranolol HCl] the “inhibition” value was 75.6%. For Cc1nc(NC(=O)N2CCC[C@H]2C(N)=O)sc1-c1ccnc(C(C)(C)C(F)(F)F)c1 [Alpelisib (BYL719)], the “inhibition” value was -17.5%. In the case of CCCCc1nc(C)c(CC(=S)N(C)C)c(=O)n1Cc1ccc(-c2ccccc2-c2nnn[nH]2)cc1 [Fimasartan], the “inhibition” value was 1.32%.

From the supplement of paper PMC9744312
